Assay [1] concerns the target RabGEF1 (mouse, endogenous in hippocampus) (mouse (endogenous in hippocampus)) (UniProt Q9JM13). The experiment in a line: co-IP; mouse hippocampus lysate; immunoprecipitation with anti-NR2B or anti-RabGEF1 antibody, immunoblot with anti-RabGEF1 or anti-NR2B; rabbit IgG as negative control. For orientation: Immunoblotting shows a protein as a band on a membrane.
Assay [2] addresses RabGEF1 (rat, endogenous in PC12 cells) (rat (endogenous in PC12)). The experiment in a line: co-IP; PC12 cell lysates (0.5% Triton-X in PSB), NGF for 0, 0.5 or 1.0 hour; immunoprecipitation with anti-RabGEF1 or anti-NR2B antibody, Protein A/G agarose, Western blot; rabbit IgG as negative control.
The target in assay [3] is NMDA receptor NR2B subunit (mouse, endogenous in hippocampus) (mouse (endogenous in hippocampus)) (UniProt Q01097). The experiment in a line: co-IP; mouse hippocampus lysate; immunoprecipitation with anti-NR2B or anti-RabGEF1 antibody, immunoblot with anti-RabGEF1 or anti-NR2B; rabbit IgG as negative control.
Assay [4] has as its target NMDA receptor NR2B subunit (rat, endogenous in PC12 cells) (rat (endogenous in PC12)) (UniProt Q00960). The experiment in a line: co-IP; PC12 cell lysates (0.5% Triton-X in PSB), NGF for 0, 0.5 or 1.0 hour; immunoprecipitation with anti-RabGEF1 or anti-NR2B antibody, Protein A/G agarose, Western blot; rabbit IgG as negative control.
For assay [5], the target named is Cdc42 (active, GTP-bound; endogenous in PC12 cells) (rat (endogenous in PC12)) (UniProt Q8CFN2). The assay can be described thus: pull-down; RabGEF1 found together with the active GTP-bound GTPase that was affinity-precipitated from PC12 lysates (NGF 0 or 15 min) by GST-Raf1-RBD, GST-Pak1-PBD or GST-Rhotekin-RBD; Western blot with anti-RabGEF1.

Protein sequences, listed by entry. Tags and fused reporters are not part of them. Residues count along the entry.
UniProt Q9JM13: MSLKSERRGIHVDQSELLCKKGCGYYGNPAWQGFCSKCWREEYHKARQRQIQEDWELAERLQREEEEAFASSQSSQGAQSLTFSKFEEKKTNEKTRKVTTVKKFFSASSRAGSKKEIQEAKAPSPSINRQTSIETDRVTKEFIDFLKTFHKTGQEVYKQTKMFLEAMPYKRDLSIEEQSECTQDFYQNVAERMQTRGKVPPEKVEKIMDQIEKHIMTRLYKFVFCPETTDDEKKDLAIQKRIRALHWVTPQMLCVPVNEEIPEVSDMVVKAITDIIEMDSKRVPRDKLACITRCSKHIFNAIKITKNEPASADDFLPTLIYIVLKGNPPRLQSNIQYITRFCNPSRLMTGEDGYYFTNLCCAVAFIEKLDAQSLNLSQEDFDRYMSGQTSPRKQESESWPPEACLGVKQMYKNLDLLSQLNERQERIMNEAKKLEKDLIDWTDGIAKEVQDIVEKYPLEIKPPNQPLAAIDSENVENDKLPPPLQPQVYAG
UniProt Q01097, residues 27-1482: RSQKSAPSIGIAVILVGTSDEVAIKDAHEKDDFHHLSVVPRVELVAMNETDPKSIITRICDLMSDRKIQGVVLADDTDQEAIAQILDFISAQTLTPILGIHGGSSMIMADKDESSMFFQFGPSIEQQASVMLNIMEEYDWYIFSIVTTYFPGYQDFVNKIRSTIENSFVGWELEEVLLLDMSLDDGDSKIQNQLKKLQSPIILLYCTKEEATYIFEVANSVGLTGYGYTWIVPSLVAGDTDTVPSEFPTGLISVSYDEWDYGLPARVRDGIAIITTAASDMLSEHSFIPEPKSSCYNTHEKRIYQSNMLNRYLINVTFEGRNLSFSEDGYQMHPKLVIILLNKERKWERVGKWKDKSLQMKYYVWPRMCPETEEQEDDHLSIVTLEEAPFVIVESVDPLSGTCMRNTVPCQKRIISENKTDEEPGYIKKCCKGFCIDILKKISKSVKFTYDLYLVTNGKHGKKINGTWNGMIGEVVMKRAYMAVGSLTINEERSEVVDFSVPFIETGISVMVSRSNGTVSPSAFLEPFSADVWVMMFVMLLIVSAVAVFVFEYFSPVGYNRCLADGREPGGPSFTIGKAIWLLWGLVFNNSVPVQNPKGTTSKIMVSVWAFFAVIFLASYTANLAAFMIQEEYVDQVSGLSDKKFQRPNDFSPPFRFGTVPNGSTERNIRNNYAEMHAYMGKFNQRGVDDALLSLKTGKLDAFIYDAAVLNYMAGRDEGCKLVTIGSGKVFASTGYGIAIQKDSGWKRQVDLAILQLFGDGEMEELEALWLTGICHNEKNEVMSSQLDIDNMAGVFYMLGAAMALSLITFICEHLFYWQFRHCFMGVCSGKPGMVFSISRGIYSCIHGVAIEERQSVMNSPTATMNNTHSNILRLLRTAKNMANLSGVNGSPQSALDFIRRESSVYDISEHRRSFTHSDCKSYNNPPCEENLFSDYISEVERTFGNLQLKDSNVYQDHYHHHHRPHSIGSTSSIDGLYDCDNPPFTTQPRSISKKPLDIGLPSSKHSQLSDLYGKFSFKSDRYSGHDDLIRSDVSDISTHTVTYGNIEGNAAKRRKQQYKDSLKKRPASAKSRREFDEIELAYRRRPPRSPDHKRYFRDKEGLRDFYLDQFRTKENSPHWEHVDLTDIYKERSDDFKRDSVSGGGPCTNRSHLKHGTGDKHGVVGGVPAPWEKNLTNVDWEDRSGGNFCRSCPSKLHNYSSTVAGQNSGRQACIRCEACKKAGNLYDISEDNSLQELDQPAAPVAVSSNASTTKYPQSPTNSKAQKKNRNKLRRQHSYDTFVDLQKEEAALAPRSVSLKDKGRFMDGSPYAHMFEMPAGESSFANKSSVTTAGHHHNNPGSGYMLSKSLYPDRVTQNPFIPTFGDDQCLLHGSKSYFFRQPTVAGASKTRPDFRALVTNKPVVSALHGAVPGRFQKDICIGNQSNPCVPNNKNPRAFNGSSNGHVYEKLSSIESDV
UniProt Q00960, residues 27-1482: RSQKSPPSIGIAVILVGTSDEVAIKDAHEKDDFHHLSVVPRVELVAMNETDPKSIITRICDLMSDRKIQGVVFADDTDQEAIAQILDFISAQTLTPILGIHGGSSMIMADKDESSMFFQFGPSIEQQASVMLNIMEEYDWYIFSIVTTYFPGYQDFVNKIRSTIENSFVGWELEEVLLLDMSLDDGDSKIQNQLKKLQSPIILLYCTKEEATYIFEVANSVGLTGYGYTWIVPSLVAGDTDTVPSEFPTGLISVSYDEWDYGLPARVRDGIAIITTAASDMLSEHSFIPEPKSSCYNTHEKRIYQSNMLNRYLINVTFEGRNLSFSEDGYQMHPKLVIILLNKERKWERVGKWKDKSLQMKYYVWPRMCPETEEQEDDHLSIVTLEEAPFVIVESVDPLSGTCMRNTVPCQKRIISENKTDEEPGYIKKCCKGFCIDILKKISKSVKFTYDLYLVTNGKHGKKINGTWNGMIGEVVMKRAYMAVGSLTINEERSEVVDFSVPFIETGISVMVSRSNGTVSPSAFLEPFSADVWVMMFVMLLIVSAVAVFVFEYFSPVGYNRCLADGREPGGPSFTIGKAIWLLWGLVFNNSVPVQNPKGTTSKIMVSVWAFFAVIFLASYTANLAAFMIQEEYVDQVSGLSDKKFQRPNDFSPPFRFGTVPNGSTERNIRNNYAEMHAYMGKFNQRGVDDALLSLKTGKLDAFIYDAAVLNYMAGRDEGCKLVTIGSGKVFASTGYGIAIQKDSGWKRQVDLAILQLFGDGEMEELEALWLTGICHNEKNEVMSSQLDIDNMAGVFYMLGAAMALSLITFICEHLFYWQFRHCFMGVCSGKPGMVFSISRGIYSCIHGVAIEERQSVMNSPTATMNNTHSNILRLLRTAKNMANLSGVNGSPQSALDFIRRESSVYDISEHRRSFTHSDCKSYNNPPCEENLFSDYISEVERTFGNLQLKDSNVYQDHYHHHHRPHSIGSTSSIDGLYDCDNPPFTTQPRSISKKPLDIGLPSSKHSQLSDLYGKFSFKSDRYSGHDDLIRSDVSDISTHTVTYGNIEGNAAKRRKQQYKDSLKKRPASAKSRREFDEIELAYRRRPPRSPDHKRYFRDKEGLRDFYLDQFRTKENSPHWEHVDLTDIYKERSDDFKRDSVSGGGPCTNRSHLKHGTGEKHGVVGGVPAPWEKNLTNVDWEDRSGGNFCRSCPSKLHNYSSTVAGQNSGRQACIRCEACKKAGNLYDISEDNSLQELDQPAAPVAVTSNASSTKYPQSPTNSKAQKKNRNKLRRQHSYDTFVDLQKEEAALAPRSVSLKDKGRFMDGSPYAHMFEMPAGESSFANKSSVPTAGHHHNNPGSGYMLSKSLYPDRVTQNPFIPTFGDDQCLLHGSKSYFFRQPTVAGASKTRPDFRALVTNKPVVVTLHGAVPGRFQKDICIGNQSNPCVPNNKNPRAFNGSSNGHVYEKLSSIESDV
UniProt Q8CFN2: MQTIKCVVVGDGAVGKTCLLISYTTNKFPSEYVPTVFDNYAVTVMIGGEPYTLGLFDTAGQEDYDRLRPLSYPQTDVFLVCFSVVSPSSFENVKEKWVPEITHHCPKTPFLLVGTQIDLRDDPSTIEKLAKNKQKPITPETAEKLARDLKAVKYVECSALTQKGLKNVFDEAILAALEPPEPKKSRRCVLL
UniProt A0A8I6ABA8: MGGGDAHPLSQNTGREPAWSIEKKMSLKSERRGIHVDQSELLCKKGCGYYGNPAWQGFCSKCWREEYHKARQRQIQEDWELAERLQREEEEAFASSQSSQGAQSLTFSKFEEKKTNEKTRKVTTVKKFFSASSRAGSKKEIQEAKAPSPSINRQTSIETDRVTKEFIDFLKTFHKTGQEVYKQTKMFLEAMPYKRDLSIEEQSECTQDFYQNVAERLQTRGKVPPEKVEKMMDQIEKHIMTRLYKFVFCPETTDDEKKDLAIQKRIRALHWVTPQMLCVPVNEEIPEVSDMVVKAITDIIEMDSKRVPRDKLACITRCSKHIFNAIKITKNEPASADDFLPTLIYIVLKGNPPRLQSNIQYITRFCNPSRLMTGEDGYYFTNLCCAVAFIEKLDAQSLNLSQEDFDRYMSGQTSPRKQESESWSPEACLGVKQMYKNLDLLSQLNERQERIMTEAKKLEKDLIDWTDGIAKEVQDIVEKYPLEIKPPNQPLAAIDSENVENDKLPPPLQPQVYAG

No constants are given. Whether binding was seen depends on the method and setting. Binding seen in cells or lysates may run through a third protein. Some entries that bind do so weakly or less than the wild type.

In the case of “NMDA receptor NR2B subunit (mouse, endogenous in hippocampus) (from UniProt Q01097 27-1482)”, the binding result in assay [1] is on record as “binds”.

Turning to “NMDA receptor NR2B subunit (rat, endogenous in PC12 cells) (from UniProt Q00960 27-1482)”, the binding entry in assay [2] is “binds”.

As for “RabGEF1 (mouse, endogenous in hippocampus) (from UniProt Q9JM13 1-491)”, in assay [3], the binding entry is listed as “binds”.

For the substance “RabGEF1 (rat, endogenous in PC12 cells) (from UniProt A0A8I6ABA8 1-515)”, the binding entry in assay [4] and in assay [5] was “binds” in each case.
